Reference: article PMC9271091
Construct, isoform or probe ends are uncertain for at least one entry. At least one verdict was read from the data and is not stated in words by the source.

Chains of the proteins cited; added tags and fusions are not shown. Lines headed by an entry give the natural chain unless they say otherwise; changes in a name come on top.
UniProt P48431: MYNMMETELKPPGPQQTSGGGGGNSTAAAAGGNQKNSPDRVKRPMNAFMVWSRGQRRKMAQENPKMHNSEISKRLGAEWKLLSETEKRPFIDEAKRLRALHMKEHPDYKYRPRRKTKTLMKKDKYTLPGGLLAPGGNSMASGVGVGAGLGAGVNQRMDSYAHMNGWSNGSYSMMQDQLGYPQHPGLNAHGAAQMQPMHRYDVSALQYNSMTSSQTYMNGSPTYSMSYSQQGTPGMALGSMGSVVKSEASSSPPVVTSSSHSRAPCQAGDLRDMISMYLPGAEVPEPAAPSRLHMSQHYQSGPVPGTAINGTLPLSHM

Target: Sox2-FL (Homo sapiens) (UniProt P48431)
Assay: EMSA
Conditions: 10 nM DNA; room temperature, 30 min; 5% native PAGE, 0.5x TBE, 4 °C; recombinant protein; residues 1-317; label: none (SYBR Gold stain)

GGCCGCTCTAGAGATATCCCCGAGGGTCGAACCATGATGCCGGATCCCCTTTGTTATGCATCTGCCGAGGCCGCTCAATTGGTCGTAGACAGCTCTAGCACCGCTTAAACGCACGTACGCGCTGTCCCCCGCGTTTTAACCGCCAAGGGGATTACTCCCTAGTCTCCAGGCACGTGTCACATATATACATCCTGTTCCAGTGCCGGTGTCGCTTGGGTCCCGAGGATATCAAG (double strand) [233-bp 601 DNA with Sox2 motif]
binding result: binds
